According to article PMC11044220 (ACS Omega, 2024):

Test system: HepG2 liver cancer cell line
Conditions: read-out: IC50 (μM) HepG2, MTT assay, mean of three independent replicates ± SE

CN[C@@H]1C[C@H]2O[C@@](C)([C@@H]1OC)n1c3ccccc3c3c4c(c5c6ccccc6n2c5c31)C(=O)NC4 [STU, staurosporin, reference compound]
IC50: 5.59 ± 0.27 µM
